Data reported in US20170009288.
For some assays here: Negatives hold for the conditions tested. A weaker result is weaker than the reference pair of the same experiment. For some assays here: The exact form of at least one protein or probe is not confirmed.

Amino acid sequences for entries named in this document (tags omitted). A change or cut given only in a name is not applied to a line headed by its entry.
UniProt P07636: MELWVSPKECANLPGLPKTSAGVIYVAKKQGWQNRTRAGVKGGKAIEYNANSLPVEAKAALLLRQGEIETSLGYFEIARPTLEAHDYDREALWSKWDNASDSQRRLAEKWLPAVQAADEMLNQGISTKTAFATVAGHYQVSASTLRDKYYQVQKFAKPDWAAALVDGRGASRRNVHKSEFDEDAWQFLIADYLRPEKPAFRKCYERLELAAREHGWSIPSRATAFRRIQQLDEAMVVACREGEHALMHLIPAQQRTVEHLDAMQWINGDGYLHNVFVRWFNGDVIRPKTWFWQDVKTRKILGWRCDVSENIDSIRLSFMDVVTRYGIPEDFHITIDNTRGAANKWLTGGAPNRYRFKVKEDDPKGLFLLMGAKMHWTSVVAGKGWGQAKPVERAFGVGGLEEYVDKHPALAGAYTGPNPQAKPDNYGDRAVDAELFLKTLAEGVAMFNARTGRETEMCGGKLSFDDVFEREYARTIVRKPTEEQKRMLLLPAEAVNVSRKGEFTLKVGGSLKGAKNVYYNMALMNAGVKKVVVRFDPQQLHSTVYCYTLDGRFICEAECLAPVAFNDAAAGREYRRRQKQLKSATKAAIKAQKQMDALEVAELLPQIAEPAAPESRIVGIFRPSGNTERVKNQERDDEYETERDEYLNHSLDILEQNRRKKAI

Key:
MuA transposase [1] = target: MuA transposase (UniProt P07636); experiment: enzyme reaction in vitro; details: purified recombinant protein, variant of Control native Mu transposon end
MuA transposase [2] = target: MuA transposase (UniProt P07636); experiment: EMSA; details: weaker complex than control; purified recombinant protein; variant of Control native Mu transposon end
[3] = fragmentation apparent, lower efficiency

Sequence: GTCATTACATTGATCGTGAAAGGCTTTCGCGTTGTTCGAGCGCCGCTTTA / TGCTAAAGCGGCGCTCGAACAACGCGAAAGCCTTTCACGATCAATGTAATGAC [Transposon No. 5]
- activity on this sequence (MuA transposase [1]; [3]): less active
- binding result (MuA transposase [2]): binds more weakly

Sequence: GTGCTTTCATTTATCGGGAAACGCTGTCGCGTTGTTCGTGCGCAGCTTTA / TGCTAAAGCTGCGCACGAACAACGCGACAGCGTTTCCCGATAAATGAAAGCAC [Transposon No. 10]
- activity on this sequence (MuA transposase [1]; [3]): less active
- binding result (MuA transposase [2]): binds more weakly

Sequence: GTTCTCGCATCTATCGTGAAAAGCTTCTCCGTTCTTCGGCCGCCGCTTCA / TGCTGAAGCGGCGGCCGAAGAACGGAGAAGCTTTTCACGATAGATGCGAGAAC [Transposon No. 9]
- activity on this sequence (MuA transposase [1]; fragmentation completely abolished): not active

Sequence: GTTTGTGCATATATCGTAAAAAGCACTCGCGTATTTCGTGCGCCGCTTAA / TGCTTAAGCGGCGCACGAAATACGCGAGTGCTTTTTACGATATATGCACAAAC [Transposon No. 11]
- activity on this sequence (MuA transposase [1]; [3]): less active
- binding result (MuA transposase [2]): binds more weakly

Sequence: GTTTTCGCATTTATCGTGAAACGCTTTCGCGTTTTTCGTGCGAGTTCA / TGCTGAACTGACGCACGAAAAACGCGAAAGCGTTTCACGATAAATGCGAAAAC [Gap 42-6 transposon end]
- activity on this sequence (MuA transposase [1]; active, slower than native end): less active

Sequence: GTTTTCGCATTTATCGTGAAACGCTTTCGCGTTTTTCGTGCGTCAGTTCA / TGCTGAACTGACGCACGAAAAACGCGAAAGCGTTTCACGATAAATGCGAAAAC [Nick 38-12 transposon end]
- activity on this sequence (MuA transposase [1]; reduced efficiency, slower than native end): less active

Sequence: GTTTTCGCATTTATCGTGAAACGCTTTCGCGTTTTTCGTGCGTCAGTTCA / TGCTGAACTGACGCACGAAAAACGCGAAAGCGTTTCACGATAAATGCGAAAAC [Nick 45-5 transposon end]
- activity on this sequence (MuA transposase [1]; reduced fragmentation efficiency): less active

Sequence: GTTTTCGCATTTATCGTGAAACGCTTTCGCGTTTTTCGTGTCAGTTCA / TGCTGAACTGACGCACGAAAAACGCGAAAGCGTTTCACGATAAATGCGAAAAC [Gap 40-8 transposon end]
- activity on this sequence (MuA transposase [1]; active, profile similar to nick 38-12): less active
